Test results: PubChem BioAssay (NCATS)
Where “and” joins values, the source holds several entries; their conditions need not be identical. Equal entries are not always repeated. Inconclusive means that the source gave no clear call. Such entries were picked first, then a sample of the others. For some of these results: Where the call is inconclusive, the potency comes from a doubtful curve fit. Calls of active or inactive are those of the source. Calls follow the shape of the dose curve; as a rule, active = well fitted curve in the direction sought with a large enough effect; inconclusive = small, poorly fitted or top-dose-only effect, or another doubt; inactive = no such curve, though single readings can be large; an effect the other way counts as inactive or inconclusive.

Assays:
[1] = Quantitative High-Throughput drug screen in 47 multiple myeloma cell lines against the NCATS MIPE library collection: KMM1_JCRB cell viability assay (AID 1918960); also: nearly all actives have a fitted effect of over 30% in size
Outline: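 ATP readout (CellTiter-Glo), 48 h drug incubation, 37 °C/5% CO2, 500 cells per well; normalisation to DMSO (100%) and media-only (0%) controls.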

[2] = Quantitative High-Throughput drug screen in 47 multiple myeloma cell lines against the NCATS MIPE library collection: Karpas417_ECACC cell viability assay (AID 1918961); details: Karpas417 myeloma viability, CellTiter-Glo ATP luminescence, 48 h; viability (% of DMSO): at 45.8 µM (top of the series)
Outline: (§1)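 Myeloma cell lines, 500 cells per well, exposed to MIPE 4.0 library compounds for 48 h at 37C, 5% CO2. Viability from ATP by CellTiter-Glo luminescence; normalised to DMSO (100%) and media-only (0%) wells.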

[3] = Quantitative High-Throughput drug screen in 47 multiple myeloma cell lines against the NCATS MIPE library collection: KMS20_JCRB cell viability assay (AID 1918973); details: CellTiter-Glo ATP, 48 h; viability (% of DMSO): at 45.8 µM (top of the series); also: nearly all actives have a fitted effect of over 45% in size
Outline: (§2)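 CellTiter-Glo luminescence (ATP) after 48 h compound exposure, 37C/5% CO2; 500 cells/well; MIPE 4.0 approved/investigational drugs pinned in; DMSO = 100%, media only = 0% viability.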

[4] = Quantitative High-Throughput drug screen in 47 multiple myeloma cell lines against the NCATS MIPE library collection: KMS21BM_JCRB cell viability assay (AID 1918974); details: ATP luminescence, 48 h; viability: at 45.8 µM (top of the series)
Outline: as §2

[5] = Quantitative High-Throughput drug screen in 47 multiple myeloma cell lines against the NCATS MIPE library collection: MMM1_PLB cell viability assay (AID 1918976); also: nearly all actives have a fitted effect of over 35% in size
Outline: (§3)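 500 cells/well per myeloma line exposed to pinned MIPE 4.0 compounds for 48 h at 37 °C, 5% CO2. Viability read as ATP by CellTiter-Glo luminescence, normalised to DMSO-only (100%) and media-only (0%) wells.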

[6] = Quantitative High-Throughput drug screen in 47 multiple myeloma cell lines against the NCATS MIPE library collection: MOLP8_DSMZ cell viability assay (AID 1918977); details: MOLP8 myeloma viability, CellTiter-Glo ATP luminescence, 48 h; series mostly up to 45.8 µM; also: nearly all actives have a fitted effect of over 45% in size
Outline: as §3

[7] = Quantitative High-Throughput drug screen in 47 multiple myeloma cell lines against the NCATS MIPE library collection: KMS34_JCRB cell viability assay (AID 1918985); also: nearly all actives have a fitted effect of over 40% in size
Outline: as §3

[8] = qHTS of pediatric cancer cell lines to identify multiple opportunities for drug repurposing: Primary screen for TC32 cells (AID 1347089); also: nearly all actives have a fitted effect of over 60% in size
Outline: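 Luminescent ATP read-out (CellTiter-Glo) of metabolically active TC32 cells after 48 h exposure. Concentration-response curves came from 11-point (MIPE, 0.78 nM–46 µM) or 8-point (NPC, 0.59 nM–46 µM) primary titrations; follow-up used 11 points.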

[9] = qHTS of pediatric cancer cell lines to identify multiple opportunities for drug repurposing: Primary screen for NB1643 cells (AID 1347099); also: nearly all actives have a fitted effect of over 50% in size
Outline: (§4)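 500-1,000 cells/well; 5 h pre-incubation 37 °C/5% CO2; compound pinned; 48 h; CellTiter-Glo, 15 min RT; luminescence. MIPE 11-pt from 0.78 nM, NPC 8-pt from 0.59 nM final. Bortezomib 2.3 µM final as positive control.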

[10] = qHTS of pediatric cancer cell lines to identify multiple opportunities for drug repurposing: Primary screen for LAN-5 cells (AID 1347100)
Outline: (§5)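 Viability after 48 h compound treatment at 37C, 500-1,000 cells/well, read as ATP luminescence with CellTiter-Glo. Primary screens used 11-point (MIPE, 0.78 nM-46 µM) or 8-point (NPC, 0.59 nM-46 µM) final concentrations; follow-up screens used 11-point dilutions.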

[11] = qHTS of pediatric cancer cell lines to identify multiple opportunities for drug repurposing: Primary screen for Rh18 cells (AID 1347102); also: nearly all actives have a fitted effect of over 65% in size
Outline: as §5

[12] = qHTS of pediatric cancer cell lines to identify multiple opportunities for drug repurposing: Primary screen for Rh41 cells (AID 1347108); also: nearly all actives have a fitted effect of over 70% in size
Outline: as §4

[13] = Quantitative High-Throughput drug screen in 47 multiple myeloma cell lines against the NCATS MIPE library collection: LP1_DSMZ cell viability assay (AID 1918982); also: nearly all actives have a fitted effect of over 35% in size
Outline: as §3

UISO = test: qHTS assay to identify novel small-molecules to repurpose for Merkel cell carcinoma treatment (AID 1296009); details: MCC and control cell lines, CellTiter-Glo viability, 72 h; series mostly up to 46 µM; also: nearly all actives have a fitted effect of over 60% in size
Outline: (§6)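 Cells were treated for 72 hr at 37 degree celsius with compounds in 8- or 11-point dose response. Viability was read by CellTiter-Glo luminescence, normalized to no-cell (cytotoxicity) and DMSO controls.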

WaGa = test: as above; details: MCC and control cell lines, CellTiter-Glo viability, 72 h; series mostly up to 46 µM
Outline: as §6

[14] = qHTS of pediatric cancer cell lines to identify multiple opportunities for drug repurposing: Primary screen for SJ-GBM2 cells (AID 1347091)
Outline: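 Viability measured as metabolically active cells via CellTiter-Glo luminescence following 48 hours of compound exposure, 11-point dilutions in confirmatory testing. 500-1,000 cells/well plated 5 hours before dosing; controls were DMSO and 2.3 µM bortezomib.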

[15] = Quantitative High-Throughput drug screen in 47 multiple myeloma cell lines against the NCATS MIPE library collection: KMS12PE_JCRB cell viability assay (AID 1918972); also: nearly all actives have a fitted effect of over 30% in size
Outline: as §1

HeLa = test: Primary qHTS to identify gynecologic anti-cancer compounds using libraries of approved drugs and bioactive compounds (AID 1345084); details: Gynecologic cancer cell panel viability, ATPlite luminescence, 48 h; series mostly up to 57.5 µM; also: nearly all actives have a fitted effect of over 55% in size
Outline: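 48 h compound exposure at 37 C, 5% CO2; five-point qHTS. ATPlite luminescence readout of cell ATP.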
Potency is read from the fitted curve at half-maximal effect.

SMILES	Potency [1]	Potency [2]	Potency [3]	Potency [4]	Potency [5]	Potency [6]	Potency [7]	Potency [8]	Potency [9]	Potency [10]	Potency [11]	Potency [12]	Potency [13]	Potency (UISO)	Potency (WaGa)	Potency [14]	Potency [15]	Potency (HeLa)
O=NN(CCCl)C(=O)NC1CCCCC1	inconclusive: 0.001 µM	inconclusive: 13.2 µM [cytotoxic, partial curve, poor fit]	inconclusive: 0.118 µM [cytotoxic, full curve, poor fit]	inconclusive: 0.0026 µM [cytotoxic, full curve, poor fit]	inconclusive: 0.0132 µM [rising, full curve, poor fit]	inactive	inactive	–	–	–	–	–	–	–	–	–	–	–
CCOc1cc2ncc(C#N)c(Nc3ccc(OCc4ccccn4)c(Cl)c3)c2cc1NC(=O)C=CCN(C)C	active: 0.935 µM	inconclusive: 0.105 µM [cytotoxic, full curve, poor fit]	–	inconclusive: 0.662 µM [cytotoxic, full curve, poor fit]	inconclusive: 0.418 µM [cytotoxic, full curve, poor fit]	inconclusive: 0.166 µM [cytotoxic, full curve]	–	inconclusive: 9.3 µM [cytotoxic, full curve, poor fit]	active: 590 nM	active: 1.48 µM	inconclusive: 5.9 µM [cytotoxic, partial curve]	inconclusive: 935 nM [cytotoxic, full curve]	inconclusive: 16.6 µM [cytotoxic, partial curve]	inconclusive: 1.48 µM [inhibitor, full curve]	inactive	–	–	–
CCC(C(=O)OCCN(CC)CC)c1ccccc1 (centres undefined)	–	–	–	–	–	–	–	–	–	–	inactive	–	–	–	–	–	–	–
COC(=O)Nc1nc2ccc(S(=O)c3ccccc3)cc2[nH]1 (centres undefined)	inactive	inconclusive: 0.0074 µM [rising, full curve, poor fit]	inconclusive: 16.6 µM [cytotoxic, partial curve, poor fit]	inconclusive: 0.0833 µM [rising, full curve, poor fit]	inactive	inconclusive: 8.33 µM [cytotoxic, partial curve, poor fit]	–	inconclusive: 37 µM [cytotoxic, single point]	inconclusive: 596 nM [cytotoxic, full curve] and inconclusive: 26.4 µM [cytotoxic, single point]	–	inconclusive: 8.41 µM [cytotoxic, partial curve] and inconclusive: 9.35 µM [cytotoxic, partial curve, poor fit]	inconclusive: 1.33 µM [cytotoxic, full curve] and inconclusive: 8.33 µM [cytotoxic, full curve]	inconclusive: 33.2 µM [cytotoxic, single point]	inconclusive: 596 nM [inhibitor, full curve] and inconclusive: 13.2 µM [inhibitor, partial curve]	inconclusive: 0.75 µM [inhibitor, full curve]	active: 596 nM and active: 14.8 µM	inconclusive: 0.0059 µM [rising, full curve]	active: 2.82 µM
CS(=O)(=O)c1ccc(-c2cnc(N)c(C(=O)Nc3ccccc3)n2)cc1	inconclusive: 3.32 µM [cytotoxic, full curve]	inconclusive: 1.48 µM [cytotoxic, partial curve, poor fit]	inactive	inconclusive: 3.32 µM [rising, full curve, poor fit]	inconclusive: 0.0059 µM [rising, full curve]	inconclusive: 11.8 µM [cytotoxic, full curve, poor fit]	inconclusive: 14.8 µM [cytotoxic, partial curve]	–	inactive	inconclusive: 26.4 µM [cytotoxic, single point]	–	–	inactive	–	–	active: 5.9 µM	inconclusive: 2.64 µM [cytotoxic, full curve]	–
